Test system: T1, DWM-aconitase
T1 construct: gene ACO; not purified; homeologous genes not distinguished
Test: aconitase/isocitrate dehydrogenase coupled assay, NADPH absorbance at […] nm
Format: biochemical, Triticum turgidum subsp. durum
Details: pH 8.0, 0.1% Triton X-100, 25 °C, 20 mM citrate; 10 min pre-incubation of mitochondria, no H2O2; activator; direct binding not shown

| Compound | % activation at 150 μM |
| --- | --- |
| O=c1cc(-c2ccc(O)cc2)oc2cc(O)cc(O)c12 [apigenin] | ~ 50% |
| COc1cc(/C=C/C(=O)CC(=O)/C=C/c2ccc(O)c(OC)c2)ccc1O [curcumin] | ~ 65% |
| O=c1c(O)c(-c2ccc(O)c(O)c2)oc2cc(O)cc(O)c12 [quercetin] | ~ 25% |
